Data source: PubChem BioAssay AID504808 (Drosophila RNAi Screening Center, 2011)
Screen: 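Fly genes required to hold E2F transcription in check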 (primary screen). System: Drosophila S2 cells. Reagents: long dsRNA against Drosophila genes. Read-out: 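Dual luciferase plate measurements; E2F-specific signal taken as firefly over Renilla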. Scale: E2F firefly: higher = more E2F reporter activity; Renilla normaliser: higher = more normaliser reporter signal. Call rule: 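Called active if the normalised E2F reporter went up by over 50%; the cutoff is arbitrary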.
The screen tested about 21,000 reagents; shown is a random part of those with a known target gene and a result. In the full data, 18 (0.084%) are marked active. 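Raw counts without plate normalisation, one of two replicates; the ratio scores behind the calls were not deposited.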 Not given: the amount of reagent, the time to read-out.

Depletion of Hsf resulted in: E2F firefly, rep 1 = 63481; Renilla normaliser, rep 1 = 3752; inactive.
Depletion of CG10418 came out at: E2F firefly, rep 1 = 1.16e5; Renilla normaliser, rep 1 = 6716; inactive.
rumi gave E2F firefly, rep 1 = 72536; Renilla normaliser, rep 1 = 3838; inactive.
With knock-down of mop, the record shows E2F firefly, rep 1 = 73747; Renilla normaliser, rep 1 = 3633; inactive.
With knock-down of eIF5 the results were E2F firefly, rep 1 = 7823; Renilla normaliser, rep 1 = 776; inactive.
For CG10853, the values are E2F firefly, rep 1 = 98132; Renilla normaliser, rep 1 = 4227; inactive.
CG11317 showed E2F firefly, rep 1 = 1636; Renilla normaliser, rep 1 = 916; inactive.
After knock-down of Tip60 the results were E2F firefly, rep 1 = 2105; Renilla normaliser, rep 1 = 896; inactive.
Silencing of CG6610 came out at: E2F firefly, rep 1 = 87183; Renilla normaliser, rep 1 = 3462; inactive.
CG14316 gave E2F firefly, rep 1 = 1.49e5; Renilla normaliser, rep 1 = 7787; inactive.
Against Cad74A the deposit lists E2F firefly, rep 1 = 1.77e5; Renilla normaliser, rep 1 = 8937; inactive.
With knock-down of CG31937 the results were E2F firefly, rep 1 = 87245; Renilla normaliser, rep 1 = 3267; inactive.

Look-ups from the entries so far.
mop, Renilla normaliser, rep 1: 3633
Tip60, E2F firefly, rep 1 = 2105
